From patent publication US9884012B2, “Use of PEDF-derived polypeptides for promoting muscle or tendon regeneration or arteriogenesis” (MacKay Memorial Hospital, priority 2012, dated 2018)
Some entries share one result that the patent states for a list of compounds.

System: tibialis anterior muscle
Assay: hindlimb ischemia model, tibialis anterior muscle necrosis/fibrosis and centrally nucleated fibers
Assay type: in vivo, C57BL/6 wild-type mice
Conditions: two weeks after surgery
Procedure: The gracilis, adductor magnus, soleus, and tibialis muscles were fixed in 4% paraformaldehyde, dehydrated with graded ethanol series, and paraffinized. Fixed samples were de-paraffinized in xylene and rehydrated in a graded series of ethanol. Tissues were sliced into 5-μm sections. General histology was performed using H&E dye.
To ascertain the number of centrally nucleated muscle fibers, sections were stained with H&E and then photographed as described above. At least 100 stained fibers were randomly chosen from each photo. Muscle fibers were judged centrally nucleated if one or more nuclei were not located at the periphery of the fiber. The data were expressed as a % of the total number of muscle fibers counted. Results were evaluated from 6 sections per muscle section, and 10 mice at each group.
6-week-old female C57BL/6 wild-type mice were anesthetized by an intraperitoneal injection of a mixture of zoletil (6 mg/kg) and xylazine (3 mg/kg). Hair was removed from the hindquarter with a depilating cream. […]
Statistical analyses regarding injured area (necrotic area+fibrotic area) and numbers of centrally nucleated fibers were also performed at two weeks after the surgery, and the results were summarized in Table 2. The injured area is expressed as the percent of total stained area (%), and the centrally nucleated fibers is expressed as the total number of muscle fibers counted (%).

Sequence: SLGAEQRTESIIHRALYYDLISSP [24-mer, synthetic peptide corresponding to residues 93-116 of human PEDF]
- increase in the number of centrally nucleated fibers as compared with blank or bolus control: 3-3.7 fold

Sequence: SLGAEQRTESIIHRALYYDLISSPDIHGT [29-mer, synthetic peptide corresponding to residues 93-121 of human PEDF]
- increase in the number of centrally nucleated fibers as compared with blank or bolus control: 3-3.7 fold
